Measurements: the supplement of paper PMC10849652
The other results are listed elsewhere or left out.

Protein sequences, listed by entry. Tags and fused reporters are not part of them. Lines headed by an entry give the natural chain unless they say otherwise; changes in a name come on top.
UniProt P57678: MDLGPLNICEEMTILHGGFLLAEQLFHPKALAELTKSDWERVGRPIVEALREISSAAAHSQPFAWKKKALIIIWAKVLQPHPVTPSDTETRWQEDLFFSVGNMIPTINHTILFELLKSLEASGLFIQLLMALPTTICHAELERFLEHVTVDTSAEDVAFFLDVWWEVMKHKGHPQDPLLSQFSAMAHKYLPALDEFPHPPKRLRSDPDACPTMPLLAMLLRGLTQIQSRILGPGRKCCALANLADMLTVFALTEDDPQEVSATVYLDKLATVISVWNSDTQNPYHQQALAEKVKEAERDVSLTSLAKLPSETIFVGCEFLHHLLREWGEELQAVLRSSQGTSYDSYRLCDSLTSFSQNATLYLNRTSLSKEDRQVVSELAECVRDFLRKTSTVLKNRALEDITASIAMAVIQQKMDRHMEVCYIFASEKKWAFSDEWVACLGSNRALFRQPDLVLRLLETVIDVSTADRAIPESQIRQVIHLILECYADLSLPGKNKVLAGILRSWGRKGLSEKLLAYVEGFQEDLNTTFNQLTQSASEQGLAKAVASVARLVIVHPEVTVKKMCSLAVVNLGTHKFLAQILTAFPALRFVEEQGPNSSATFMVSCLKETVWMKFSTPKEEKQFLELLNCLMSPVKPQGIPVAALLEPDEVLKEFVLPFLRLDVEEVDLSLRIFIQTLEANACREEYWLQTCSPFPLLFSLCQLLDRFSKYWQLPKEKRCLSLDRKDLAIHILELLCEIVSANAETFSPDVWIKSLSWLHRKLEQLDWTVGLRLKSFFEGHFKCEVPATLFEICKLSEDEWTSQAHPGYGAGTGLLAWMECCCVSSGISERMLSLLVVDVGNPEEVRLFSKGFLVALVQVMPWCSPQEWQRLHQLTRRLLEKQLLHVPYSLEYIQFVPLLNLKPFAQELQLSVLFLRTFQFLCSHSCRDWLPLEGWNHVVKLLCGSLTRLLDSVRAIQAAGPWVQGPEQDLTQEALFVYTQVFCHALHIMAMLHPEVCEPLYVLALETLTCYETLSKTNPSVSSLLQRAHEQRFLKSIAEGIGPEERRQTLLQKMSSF
UniProt Q13480: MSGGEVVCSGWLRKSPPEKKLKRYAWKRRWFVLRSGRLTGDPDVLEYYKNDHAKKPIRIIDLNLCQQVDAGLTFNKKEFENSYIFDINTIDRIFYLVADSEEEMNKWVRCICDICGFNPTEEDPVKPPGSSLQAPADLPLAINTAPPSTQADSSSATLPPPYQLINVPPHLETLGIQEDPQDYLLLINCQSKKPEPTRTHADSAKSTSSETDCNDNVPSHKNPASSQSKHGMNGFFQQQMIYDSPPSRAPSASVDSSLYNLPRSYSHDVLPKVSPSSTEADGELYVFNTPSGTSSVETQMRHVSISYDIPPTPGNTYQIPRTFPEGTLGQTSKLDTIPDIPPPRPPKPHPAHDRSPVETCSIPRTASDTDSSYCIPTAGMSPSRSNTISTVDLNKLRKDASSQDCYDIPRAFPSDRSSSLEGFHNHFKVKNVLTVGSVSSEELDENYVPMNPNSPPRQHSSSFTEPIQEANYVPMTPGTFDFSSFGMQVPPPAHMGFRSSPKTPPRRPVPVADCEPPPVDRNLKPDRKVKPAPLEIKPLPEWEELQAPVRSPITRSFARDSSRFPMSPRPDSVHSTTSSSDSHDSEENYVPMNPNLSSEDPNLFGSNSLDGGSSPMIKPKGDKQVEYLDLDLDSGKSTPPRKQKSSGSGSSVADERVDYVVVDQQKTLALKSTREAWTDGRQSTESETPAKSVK
UniProt O14772: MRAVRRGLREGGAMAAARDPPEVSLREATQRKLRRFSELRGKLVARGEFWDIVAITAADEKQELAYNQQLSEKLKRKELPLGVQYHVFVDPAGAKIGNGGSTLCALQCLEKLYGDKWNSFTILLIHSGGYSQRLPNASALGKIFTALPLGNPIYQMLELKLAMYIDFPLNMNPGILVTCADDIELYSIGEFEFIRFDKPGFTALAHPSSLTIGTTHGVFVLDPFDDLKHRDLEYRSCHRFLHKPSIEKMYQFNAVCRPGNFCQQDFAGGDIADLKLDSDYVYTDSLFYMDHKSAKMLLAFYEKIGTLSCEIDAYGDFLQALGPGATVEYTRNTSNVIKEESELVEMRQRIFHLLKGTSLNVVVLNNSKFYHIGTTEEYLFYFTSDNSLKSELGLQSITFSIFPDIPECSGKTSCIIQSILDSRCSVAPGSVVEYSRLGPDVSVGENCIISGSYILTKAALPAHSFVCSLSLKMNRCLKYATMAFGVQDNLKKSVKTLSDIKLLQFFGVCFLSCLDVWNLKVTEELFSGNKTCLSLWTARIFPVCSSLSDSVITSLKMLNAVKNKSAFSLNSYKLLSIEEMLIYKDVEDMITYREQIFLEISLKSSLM
UniProt Q9UJY5: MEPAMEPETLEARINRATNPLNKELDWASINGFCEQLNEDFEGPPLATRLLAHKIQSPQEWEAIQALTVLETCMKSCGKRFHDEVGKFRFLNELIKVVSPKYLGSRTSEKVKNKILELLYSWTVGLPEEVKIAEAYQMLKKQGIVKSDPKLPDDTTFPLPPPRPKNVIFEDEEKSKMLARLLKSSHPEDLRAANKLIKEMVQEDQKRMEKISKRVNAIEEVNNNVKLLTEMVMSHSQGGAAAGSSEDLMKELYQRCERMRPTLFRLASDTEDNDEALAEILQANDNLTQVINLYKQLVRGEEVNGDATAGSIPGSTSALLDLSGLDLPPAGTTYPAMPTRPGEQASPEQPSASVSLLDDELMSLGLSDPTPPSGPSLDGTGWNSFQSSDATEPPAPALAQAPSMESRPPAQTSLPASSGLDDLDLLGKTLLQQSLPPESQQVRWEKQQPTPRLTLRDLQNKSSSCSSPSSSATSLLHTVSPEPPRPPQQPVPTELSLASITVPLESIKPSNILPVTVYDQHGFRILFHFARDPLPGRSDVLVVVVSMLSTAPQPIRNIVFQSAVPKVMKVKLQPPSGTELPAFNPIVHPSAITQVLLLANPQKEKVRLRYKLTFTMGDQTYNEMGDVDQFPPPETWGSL
UniProt P07902: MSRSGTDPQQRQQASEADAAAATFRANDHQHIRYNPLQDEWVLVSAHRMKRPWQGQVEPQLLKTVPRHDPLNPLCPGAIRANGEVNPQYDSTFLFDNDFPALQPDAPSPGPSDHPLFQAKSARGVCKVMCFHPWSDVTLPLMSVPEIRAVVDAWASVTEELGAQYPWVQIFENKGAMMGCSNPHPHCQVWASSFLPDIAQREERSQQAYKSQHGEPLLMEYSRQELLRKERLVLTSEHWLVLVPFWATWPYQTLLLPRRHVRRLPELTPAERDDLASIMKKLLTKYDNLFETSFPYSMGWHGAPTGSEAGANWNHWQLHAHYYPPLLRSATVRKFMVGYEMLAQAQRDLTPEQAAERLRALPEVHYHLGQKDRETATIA
UniProt Q96CU9: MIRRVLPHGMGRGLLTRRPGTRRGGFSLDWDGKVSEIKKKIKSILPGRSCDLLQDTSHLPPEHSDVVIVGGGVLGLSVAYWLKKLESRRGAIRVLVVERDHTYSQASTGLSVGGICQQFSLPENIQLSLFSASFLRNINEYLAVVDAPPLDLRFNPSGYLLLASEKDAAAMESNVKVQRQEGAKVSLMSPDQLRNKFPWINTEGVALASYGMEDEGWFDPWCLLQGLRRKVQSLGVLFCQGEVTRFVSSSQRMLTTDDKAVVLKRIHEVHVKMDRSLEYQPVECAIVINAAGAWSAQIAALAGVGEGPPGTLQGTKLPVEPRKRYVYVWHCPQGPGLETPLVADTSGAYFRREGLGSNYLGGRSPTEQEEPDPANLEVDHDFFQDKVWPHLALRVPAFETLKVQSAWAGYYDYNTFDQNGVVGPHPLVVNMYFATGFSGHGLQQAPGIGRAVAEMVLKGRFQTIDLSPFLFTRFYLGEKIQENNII
UniProt Q9H2C0: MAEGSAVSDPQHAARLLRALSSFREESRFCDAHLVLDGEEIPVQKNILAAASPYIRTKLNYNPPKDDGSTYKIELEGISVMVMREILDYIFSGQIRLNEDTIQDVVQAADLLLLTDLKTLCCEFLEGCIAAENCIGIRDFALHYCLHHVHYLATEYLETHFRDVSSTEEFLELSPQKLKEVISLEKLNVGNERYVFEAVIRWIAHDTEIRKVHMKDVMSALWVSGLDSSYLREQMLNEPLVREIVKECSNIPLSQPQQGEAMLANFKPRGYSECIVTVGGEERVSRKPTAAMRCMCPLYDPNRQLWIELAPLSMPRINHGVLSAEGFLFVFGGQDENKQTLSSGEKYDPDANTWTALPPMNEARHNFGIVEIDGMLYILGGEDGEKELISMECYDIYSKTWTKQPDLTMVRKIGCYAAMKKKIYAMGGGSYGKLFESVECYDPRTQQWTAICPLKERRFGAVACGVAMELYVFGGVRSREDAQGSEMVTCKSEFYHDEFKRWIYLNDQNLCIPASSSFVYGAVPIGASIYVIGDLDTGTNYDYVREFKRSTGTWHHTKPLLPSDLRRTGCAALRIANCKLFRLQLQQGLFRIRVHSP
UniProt Q7Z7M9: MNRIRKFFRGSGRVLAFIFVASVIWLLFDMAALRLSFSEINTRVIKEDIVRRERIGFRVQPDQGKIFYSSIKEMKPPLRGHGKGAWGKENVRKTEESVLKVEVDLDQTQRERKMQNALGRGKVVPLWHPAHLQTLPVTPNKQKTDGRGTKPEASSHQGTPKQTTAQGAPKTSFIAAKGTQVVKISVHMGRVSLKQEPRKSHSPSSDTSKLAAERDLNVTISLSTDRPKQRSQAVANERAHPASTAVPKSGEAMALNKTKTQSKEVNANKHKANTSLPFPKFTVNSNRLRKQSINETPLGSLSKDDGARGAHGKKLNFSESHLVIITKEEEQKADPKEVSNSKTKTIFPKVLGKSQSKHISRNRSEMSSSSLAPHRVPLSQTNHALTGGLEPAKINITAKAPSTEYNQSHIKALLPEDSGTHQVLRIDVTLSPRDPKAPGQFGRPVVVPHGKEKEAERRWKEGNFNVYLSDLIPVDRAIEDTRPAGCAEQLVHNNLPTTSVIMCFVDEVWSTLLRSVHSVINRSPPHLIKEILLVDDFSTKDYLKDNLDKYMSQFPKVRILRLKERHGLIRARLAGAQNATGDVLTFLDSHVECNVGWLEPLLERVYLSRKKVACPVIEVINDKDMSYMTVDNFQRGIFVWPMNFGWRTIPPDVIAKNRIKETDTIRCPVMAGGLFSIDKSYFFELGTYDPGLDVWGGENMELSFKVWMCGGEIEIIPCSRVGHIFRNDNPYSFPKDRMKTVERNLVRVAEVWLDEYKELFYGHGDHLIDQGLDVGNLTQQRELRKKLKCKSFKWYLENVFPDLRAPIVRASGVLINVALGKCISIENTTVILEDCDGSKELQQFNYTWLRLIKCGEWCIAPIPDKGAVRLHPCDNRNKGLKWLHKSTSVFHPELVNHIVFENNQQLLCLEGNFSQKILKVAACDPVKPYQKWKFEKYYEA
UniProt P02794, whole entry, looked up: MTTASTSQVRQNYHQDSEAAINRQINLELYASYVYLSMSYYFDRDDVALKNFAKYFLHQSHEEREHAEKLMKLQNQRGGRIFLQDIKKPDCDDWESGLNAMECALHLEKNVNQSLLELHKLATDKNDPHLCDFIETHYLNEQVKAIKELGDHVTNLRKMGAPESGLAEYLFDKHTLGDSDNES
UniProt Q16595: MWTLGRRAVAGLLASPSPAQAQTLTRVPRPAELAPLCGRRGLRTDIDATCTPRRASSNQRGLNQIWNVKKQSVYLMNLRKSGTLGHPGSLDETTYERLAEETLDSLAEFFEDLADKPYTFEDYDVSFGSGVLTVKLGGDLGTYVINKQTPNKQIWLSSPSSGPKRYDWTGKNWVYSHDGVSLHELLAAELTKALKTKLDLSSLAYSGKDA
UniProt P02774: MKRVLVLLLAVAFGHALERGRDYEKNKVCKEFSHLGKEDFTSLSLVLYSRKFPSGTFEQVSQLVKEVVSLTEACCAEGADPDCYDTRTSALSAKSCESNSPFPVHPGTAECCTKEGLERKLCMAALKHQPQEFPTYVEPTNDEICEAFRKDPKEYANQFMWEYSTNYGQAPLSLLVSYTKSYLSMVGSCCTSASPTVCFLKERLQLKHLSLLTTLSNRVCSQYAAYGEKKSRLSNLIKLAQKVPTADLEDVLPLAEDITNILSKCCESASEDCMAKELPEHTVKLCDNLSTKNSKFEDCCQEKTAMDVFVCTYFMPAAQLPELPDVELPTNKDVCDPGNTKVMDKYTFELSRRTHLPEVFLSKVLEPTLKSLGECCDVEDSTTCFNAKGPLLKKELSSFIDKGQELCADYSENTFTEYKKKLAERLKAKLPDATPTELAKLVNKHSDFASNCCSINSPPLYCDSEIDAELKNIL

Experiments:
Assay in all cases: log2 fold change, soluble protein after heating vs DMSO (PISA); higher = thermal stabilisation; K562 cells, 10 uM, 30 min; active = over 0.2 and 3.5 SD of the protein, either way, in both replicates (recomputed)
[1] = compound: CS(=O)(=O)c1ccc(-c2cnc(N)c(C(=O)Nc3ccccc3)n2)cc1
Method in brief: (§1)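 Thermal stability values are relative to control samples and come from duplicates. They are expressed as log2 fold changes. For measurement, K562 cells (2×10^6 cells/mL) received 10 μM compound for 30 min, and aliquots were heated for 3 min over 48°C-58°C, pooled, and extracted at 4°C in PBS with 0.5% NP-40. Soluble protein, the supernatant after 21,000xg for 90 min, was quantified by TMTpro 16plex LC-MS/MS with equalised channel sums.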

[2] = compound: C[C@@H](Oc1cc(-c2cnn(C3CCNCC3)c2)cnc1N)c1c(Cl)ccc(F)c1Cl [crizotinib]
Method in brief: as §1

[3] = compound: C[C@@H]1COCCN1C2=NC(=NC(=C2)C3(CC3)S(=O)(=O)C)C4=C5C=CNC5=CC=C4
Method in brief: as §1

[4] = compound: C[C@H](C1=CC=C(C=C1)C(=O)NC2=C3C=CNC3=NC=C2)N
Method in brief: as §1

[5] = compound: C[C@H](Nc1ncnc2nc[nH]c12)c1cc2cccc(Cl)c2c(=O)n1-c1ccccc1 [duvelisib]
Method in brief: as §1

[6] = compound: Cc1cc(Nc2cc(CN3CCOCC3)c3nc(C)c(Cc4ccc(Cl)cc4F)n3n2)n[nH]1 [gandotinib]
Method in brief: as §1

[7] = compound: Cc1cc(Nc2cc(N3CCN(C)CC3)nc(Sc3ccc(NC(=O)C4CC4)cc3)n2)n[nH]1 [tozasertib]
Method in brief: as §1

[8] = compound: Cc1cc(SCc2sc(-c3ccc(C(F)(F)F)cc3)nc2C)ccc1OCC(=O)O
Method in brief: as §1

[9] = compound: Cc1ccc(-n2nc(C(C)(C)C)cc2NC(=O)Nc2ccc(OCCN3CCOCC3)c3ccccc23)cc1 [doramapimod]
Method in brief: as §1

[10] = compound: Cc1ccc(C(=O)N(CCCN)[C@@H](c2nc3cc(Cl)ccc3c(=O)n2Cc2ccccc2)C(C)C)cc1 [ispinesib]
Method in brief: as §1

[11] = compound: Cc1ccc(NC(=O)c2ccc(CN3CC[C@H](N(C)C)C3)c(C(F)(F)F)c2)cc1Nc1nccc(-c2cncnc2)n1 [bafetinib]
Method in brief: as §1

[12] = compound: Cc1cccc(CC(=O)N2CCc3c2ccc(-c2cn(C)c4ncnc(N)c24)c3F)n1
Method in brief: as §1

[13] = compound: Cc1cn(-c2cc(NC(=O)c3ccc(C)c(Nc4nccc(-c5cccnc5)n4)c3)cc(C(F)(F)F)c2)cn1 [nilotinib]
Method in brief: as §1

[14] = compound: Cc1nc(Nc2n[nH]c3c2CN(C(=O)N[C@H](CN(C)C)c2ccccc2)C3(C)C)c2sccc2n1
Method in brief: as §1

[15] = compound: Cc1nc(Nc2ncc(C(=O)Nc3c(C)cccc3Cl)s2)cc(N2CCN(CCO)CC2)n1 [dasatinib]
Method in brief: as §1

[16] = compound: Cc1ncc(-c2ccnc(Nc3ccc(S(C)(=O)=O)cc3)n2)n1C(C)C
Method in brief: as §1

[17] = compound: Cn1cc(-c2ccc3c(c2)CCN3C(=O)Cc2cccc(C(F)(F)F)c2)c2c(N)ncnc21
Method in brief: as §1

[18] = compound: Cn1cc(-c2ccc3nnc(C(F)(F)c4ccc5ncccc5c4)n3n2)cn1
Method in brief: as §1

[19] = compound: Cn1cncc1[C@@](N)(c1ccc(Cl)cc1)c1ccc2c(c1)c(-c1cccc(Cl)c1)cc(=O)n2C [tipifarnib]
Method in brief: as §1

[20] = compound: FC(F)(F)c1ccc(/C=C/c2nc(COc3ccc(CCCCn4ccnn4)cc3)co2)cc1 [mubritinib]
Method in brief: as §1

Measured: log2 fold change

GEMIN4 (UniProt P57678)
inactive: [1] 0.062 | [2] -0.204 | [3] -0.278 | [4] 0.588 | [5] -0.281 | [6] 0.007 | [7] 0.032 | [8] 0.095 | [9] 0.163 | [10] -0.169 | [11] 0.565 | [12] 0.211 | [13] -0.01 | [14] 0.195 | [15] 0.05 | [16] -0.027 | [17] -0.491 | [18] -0.081 | [19] 0.264 | [20] -0.281

GAB1 isoform 2 (UniProt Q13480)
inactive: [1] -0.048 | [2] -0.015 | [3] -0.014 | [4] -0.03 | [5] -0.045 | [6] 0.015 | [7] 0.049 | [8] 0.02 | [9] 0.004 | [10] -0.163 | [11] -0.024 | [12] -0.067 | [13] 0.072 | [14] 0.007 | [15] 0.061 | [16] -0.121 | [17] 0.02 | [18] 0.002 | [19] 0.013 | [20] 0.116

FPGT (UniProt O14772)
inactive: [1] 0.033 | [2] -0.037 | [3] 0.09 | [4] -0.057 | [5] 0.007 | [6] -0.029 | [7] 0.007 | [8] 0.007 | [9] -0.009 | [10] -0.09 | [11] -0.033 | [12] 0.103 | [13] -0.004 | [14] 0.024 | [15] -0.085 | [16] 0.016 | [17] 0.082 | [18] 0.028 | [19] -0.085 | [20] 0.024

GGA1 isoform 6 (UniProt Q9UJY5)
inactive: [1] -0.054 | [2] -0.002 | [3] -0.064 | [4] -0.052 | [5] 0.013 | [6] -0.132 | [7] -0.004 | [8] 0.055 | [9] -0.024 | [10] -0.016 | [11] -0.051 | [12] 0.026 | [13] -0.012 | [14] -0.017 | [15] 0.06 | [16] -0.01 | [17] 0.032 | [18] 0 | [19] -0.094 | [20] 0.022

GADD45GIP1 (UniProt Q8TAE8)
inactive: [1] 0 | [2] 0.047 | [3] -0.18 | [4] 0.078 | [5] -0.017 | [6] 0.097 | [7] -0.025 | [8] 0.019 | [9] 0.061 | [10] -0.055 | [11] 0.007 | [12] -0.093 | [13] 0.022 | [14] 0.061 | [15] 0.054 | [16] 0.013 | [17] -0.199 | [18] -0.047 | [19] 0.022 | [20] 0.056

FRG1 (UniProt Q14331)
inactive: [1] 0.021 | [2] -0.019 | [3] -0.11 | [4] 0.151 | [5] -0.076 | [6] 0.047 | [7] 0 | [8] 0.069 | [9] 0.015 | [10] -0.118 | [11] 0.066 | [12] 0 | [13] -0.02 | [14] -0.015 | [15] -0.017 | [16] 0.02 | [17] -0.061 | [18] -0.028 | [19] 0.034 | [20] 0.009

GALT (UniProt P07902)
inactive: [1] 0.016 | [2] 0.071 | [3] -0.092 | [4] -0.069 | [5] -0.034 | [6] -0.059 | [7] 0.019 | [8] 0.011 | [9] -0.043 | [10] 0.02 | [11] 0.003 | [12] 0.084 | [13] -0.057 | [14] -0.109 | [15] 0.044 | [16] -0.03 | [17] -0.038 | [18] -0.03 | [19] -0.064 | [20] -0.056

FOXRED1 (UniProt Q96CU9)
inactive: [1] 0.003 | [2] -0.006 | [3] 0.05 | [4] -0.095 | [5] 0.061 | [6] 0.002 | [7] 0.032 | [8] -0.051 | [9] -0.016 | [10] -0.128 | [11] -0.06 | [12] 0.06 | [13] 0.026 | [14] 0.011 | [15] -0.099 | [16] -0.022 | [17] 0.038 | [18] 0.089 | [19] -0.063 | [20] 0.05

GAN (UniProt Q9H2C0)
inactive: [1] 0.076 | [2] 0.02 | [3] 0.046 | [4] -0.045 | [5] 0.05 | [6] -0.109 | [7] -0.077 | [8] -0.014 | [9] -0.009 | [10] -0.1 | [11] -0.009 | [12] -0.024 | [13] 0.018 | [14] -0.04 | [15] -0.024 | [16] -0.07 | [17] 0.039 | [18] 0.021 | [19] 0.034 | [20] 0.029

GDAP1 (UniProt Q8TB36)
inactive: [1] -0.042 | [2] 0.036 | [3] 0.077 | [4] 0.006 | [5] 0 | [6] 0.161 | [7] 0.009 | [8] -0.08 | [9] 0.091 | [10] 0.105 | [11] -0.071 | [12] 0.028 | [13] 0.039 | [14] -0.081 | [15] -0.03 | [16] 0.014 | [17] 0.051 | [18] -0.07 | [19] 0.04 | [20] 0.034

GALNT5 (UniProt Q7Z7M9)
inactive: [1] 0.013 | [2] 0.111 | [3] 0.024 | [4] -0.048 | [5] 0.031 | [6] 0.038 | [7] 0.012 | [8] -0.017 | [9] 0.01 | [10] 0.084 | [11] -0.039 | [12] -0.036 | [13] 0.036 | [14] -0.083 | [15] 0.057 | [16] 0 | [17] 0.002 | [18] 0.031 | [19] -0.02 | [20] 0.056

GAMT (UniProt Q14353)
inactive: [1] -0.043 | [2] -0.044 | [3] 0.16 | [4] -0.062 | [5] 0.036 | [6] -0.198 | [7] 0.051 | [8] -0.037 | [9] 0.026 | [10] 0.081 | [11] 0.017 | [12] 0.056 | [13] 0.052 | [14] -0.086 | [15] 0.046 | [16] -0.03 | [17] 0.12 | [18] -0.096 | [19] 0 | [20] 0.094

FTSJ1 isoform 2 (UniProt Q9UET6)
inactive: [1] 0.093

FTH1 (UniProt P02794)
inactive: [1] -0.04 | [2] -0.091 | [3] -0.113 | [4] 0.104 | [5] -0.024 | [6] 0.022 | [7] 0.029 | [8] 0.051 | [9] 0.032 | [10] -0.077 | [11] -0.089 | [12] 0.015 | [13] 0.097 | [14] -0.007 | [15] -0.094 | [16] -0.045 | [17] 0.024 | [18] 0.002 | [19] 0.037 | [20] 0.02

FSCN1 (UniProt Q16658)
inactive: [1] -0.006 | [2] -0.009 | [3] 0.044 | [4] -0.101 | [5] -0.004 | [6] -0.06 | [7] -0.023 | [8] 0.015 | [9] -0.016 | [10] 0.068 | [11] 0.03 | [12] -0.001 | [13] 0.025 | [14] -0.037 | [15] -0.029 | [16] 0.002 | [17] 0.003 | [18] 0.01 | [19] -0.051 | [20] 0.026

FXN (UniProt Q16595)
inactive: [1] -0.022 | [2] 0.13 | [3] 0.129 | [4] -0.135 | [5] 0.044 | [6] 0.063 | [7] 0.067 | [8] 0.017 | [9] 0.03 | [10] 0.262 | [11] 0 | [12] -0.023 | [13] 0.027 | [14] 0.034 | [15] 0.002 | [16] 0 | [17] 0.089 | [18] 0.065 | [19] -0.054 | [20] -0.027

GC isoform 3 (UniProt P02774)
inactive: [1] -0.112 | [2] -0.245 | [3] -0.186 | [4] -0.112 | [5] -0.202 | [6] -0.116 | [7] 0.094 | [8] -0.013 | [9] 0.538 | [10] 0.167 | [11] 0.014 | [12] -0.107 | [13] 0.017 | [14] -0.008 | [15] 0.113 | [16] 0.345 | [17] 0.282 | [18] -0.218 | [19] -0.084

3 neighbouring records from above, quoted:
GAMT (UniProt Q14353)
inactive: [1] -0.043 | [2] -0.044 | [3] 0.16 | [4] -0.062 | [5] 0.036 | [6] -0.198 | [7] 0.051 | [8] -0.037 | [9] 0.026 | [10] 0.081 | [11] 0.017 | [12] 0.056 | [13] 0.052 | [14] -0.086 | [15] 0.046 | [16] -0.03 | [17] 0.12 | [18] -0.096 | [19] 0 | [20] 0.094

FTSJ1 isoform 2 (UniProt Q9UET6)
inactive: [1] 0.093

FTH1 (UniProt P02794)
inactive: [1] -0.04 | [2] -0.091 | [3] -0.113 | [4] 0.104 | [5] -0.024 | [6] 0.022 | [7] 0.029 | [8] 0.051 | [9] 0.032 | [10] -0.077 | [11] -0.089 | [12] 0.015 | [13] 0.097 | [14] -0.007 | [15] -0.094 | [16] -0.045 | [17] 0.024 | [18] 0.002 | [19] 0.037 | [20] 0.02
